Data source: PubChem BioAssay AID1259260 (Sanger Institute, 2017)
Screen: 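Kinases whose knock-down kills colorectal cancer cells or boosts drug effects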 (primary screen). System: human NCI-H716 colorectal cancer cells. Reagents: siRNA pool against human genes. Conditions: anchor drugs BYL719 (alpelisib) 1 µM, cetuximab 5 µg/ml or trametinib 10 nM, each at a dose chosen to harm viability only mildly; DMSO vehicle for the knock-down-alone arm. Read-out: 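Replicate-averaged viability relative to a non-targeting pool, a robust z-score for knock-down alone, and a synergy score per anchor drug versus each agent alone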. Direction: viability robust z-score, siRNA alone: higher = more surviving cells; below -3 called essential; viability vs control, no drug: higher = more surviving cells; synergy score with BYL719 and synergy score with cetuximab and synergy score with trametinib: higher = stronger synergy (synthetic lethality) with drug. Call rule: 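a knock-down counts as essential if its no-drug robust z-score is lower than -3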. Calls: active = essential (knock-down alone lowers viability); inactive = no essential effect.
This is an unselected part of 794 reagents. Over the whole deposit, 13 (1.6%) were called active. 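Calls reflect only knock-down without drug; synergy above 0.15 was grouped apart and does not change the call.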 Viability is capped at 1. Reagent sequences are not shown. The record does not give: the amount of reagent, the time to read-out.

The opening 5 records, ahead of the listing:
gene knocked down	viability robust z-score, siRNA alone	viability vs control, no drug (fraction of control)	synergy score with BYL719	synergy score with cetuximab	synergy score with trametinib	activity call
NUCKS1	0.602	1	0.0277	-0.0881	0.0691	inactive
CERT1 (ceramide transporter 1)	0.602	1	-0.283	-0.1	0.151	inactive
ERBB2 (erb-b2 receptor tyrosine kinase 2)	-1.66	0.765	-0.183	0.016	-0.0581	inactive
RPS6KA5 (ribosomal protein S6 kinase A5)	-2.48	0.68	-0.162	0.0752	0.061	inactive
GRK7 (G protein-coupled receptor kinase 7)	0.602	1	0.161	0.0451	0.17	inactive

The list itself, from the first entry:
gene knocked down	viability robust z-score, siRNA alone	viability vs control, no drug (fraction of control)	synergy score with BYL719	synergy score with cetuximab	synergy score with trametinib	activity call
NUCKS1	0.602	1	0.0277	-0.0881	0.0691	inactive
CERT1 (ceramide transporter 1)	0.602	1	-0.283	-0.1	0.151	inactive
ERBB2 (erb-b2 receptor tyrosine kinase 2)	-1.66	0.765	-0.183	0.016	-0.0581	inactive
RPS6KA5 (ribosomal protein S6 kinase A5)	-2.48	0.68	-0.162	0.0752	0.061	inactive
GRK7 (G protein-coupled receptor kinase 7)	0.602	1	0.161	0.0451	0.17	inactive
CDADC1 (cytidine and dCMP deaminase domain containing 1)	-2.25	0.703	-0.0828	-0.0966	-0.0387	inactive
TWF2 (twinfilin actin binding protein 2)	0.602	1	-0.283	-0.1	-0.0743	inactive
NEK1 (NIMA related kinase 1)	0.602	1	-0.256	-0.1	0.0901	inactive
NEK3 (NIMA related kinase 3)	-1.57	0.774	-0.0679	0.0985	-0.046	inactive
CRIM1 (cysteine rich transmembrane BMP regulator 1)	-2.2	0.709	-0.0533	-0.123	0.0247	inactive
NEK11 (NIMA related kinase 11)	-2.73	0.654	-0.176	-0.112	-0.0342	inactive
GRK5 (G protein-coupled receptor kinase 5)	0.398	0.979	-0.165	-0.1	0.358	inactive
MED24 (mediator complex subunit 24)	0.602	1	-0.104	-0.1	-0.153	inactive
PI4K2B (phosphatidylinositol 4-kinase type 2 beta)	0.107	0.949	-0.107	-0.0272	0.0834	inactive
CASP8 (caspase 8)	0.602	1	-0.283	-0.1	-0.244	inactive
BMPR1A (bone morphogenetic protein receptor type 1A)	0.602	1	-0.0815	-0.088	-0.0933	inactive
TRIB3 (tribbles pseudokinase 3)	0.602	1	0.00923	-0.1	0.0351	inactive
HIPK1 (homeodomain interacting protein kinase 1)	0.602	1	-0.0938	-0.0938	0.0937	inactive
PTK2 (protein tyrosine kinase 2)	0.602	1	-0.0224	-0.1	-0.044	inactive
PI4K2A (phosphatidylinositol 4-kinase type 2 alpha)	0.602	1	-0.283	-0.1	0.14	inactive
PIK3CG	-0.12	0.925	-0.0656	0.173	0.0207	inactive
MYH10 (myosin heavy chain 10)	0.602	1	0.0676	0.0362	0.2	inactive
MINK1 (misshapen like kinase 1)	0.602	1	-0.161	-0.1	0.264	inactive
DBF4 (DBF4-CDC7 kinase regulatory subunit)	0.602	1	-0.266	-0.0429	-0.149	inactive
MED12 (mediator complex subunit 12)	-1.33	0.8	-0.0329	-0.11	0.00123	inactive
CLK1 (CDC like kinase 1)	-0.816	0.853	-0.227	-0.233	-0.204	inactive
LIMK2 (LIM domain kinase 2)	0.602	1	-0.282	-0.1	-0.28	inactive
JAK1 (Janus kinase 1)	0.602	1	-0.141	-0.1	0.127	inactive
DLG3 (discs large MAGUK scaffold protein 3)	0.602	1	-0.234	-0.1	-0.0465	inactive
MASTL (microtubule associated serine/threonine kinase like)	0.602	1	-0.154	-0.1	0.0629	inactive
MAPK4 (mitogen-activated protein kinase 4)	-0.869	0.847	-0.0425	0.0683	0.212	inactive
CDKN2D (cyclin dependent kinase inhibitor 2D)	0.602	1	0.000887	-0.0455	-0.0685	inactive
TLK1 (tousled like kinase 1)	0.602	1	-0.102	-0.1	-0.0428	inactive
MST1R (macrophage stimulating 1 receptor)	0.602	1	-0.0238	0.0302	0.0753	inactive
MAST2 (microtubule associated serine/threonine kinase 2)	-0.077	0.929	-0.195	0.0167	0.0579	inactive
TRPM6	0.0821	0.946	-0.207	-0.149	-0.132	inactive
BTK (Bruton tyrosine kinase)	0.413	0.98	-0.044	0.024	-0.0572	inactive
TTBK1 (tau tubulin kinase 1)	-0.674	0.867	-0.0938	-0.0887	0.0463	inactive
CDC42BPG (CDC42 binding protein kinase gamma)	0.602	1	-0.00204	-0.1	0.0875	inactive
DCLK1 (doublecortin like kinase 1)	0.602	1	-0.108	-0.1	-0.0225	inactive
STK40 (serine/threonine kinase 40)	0.157	0.954	-0.278	-0.0643	0.138	inactive
PRKY (protein kinase Y-linked (pseudogene))	-0.0455	0.933	-0.0155	-0.161	-0.0494	inactive
BMPR2 (bone morphogenetic protein receptor type 2)	0.602	1	-0.109	0.00423	0.279	inactive
GNE	0.602	1	-0.283	-0.1	-0.195	inactive
ABL2 (ABL proto-oncogene 2, non-receptor tyrosine kinase)	0.602	1	-0.0371	-0.0553	0.0191	inactive
NAGK (N-acetylglucosamine kinase)	-0.592	0.876	-0.211	-0.0874	-0.223	inactive
AKAP9 (A-kinase anchoring protein 9)	-0.367	0.899	-0.0248	-0.0886	-0.0399	inactive
PEAK1 (pseudopodium enriched atypical kinase 1)	-1.54	0.777	-0.0692	-0.0393	0.119	inactive
PRKG2 (protein kinase cGMP-dependent 2)	0.602	1	-0.0153	-0.1	0.106	inactive
OBSCN	-0.112	0.926	-0.165	-0.00854	0.0993	inactive
